Results deposited as PubChem BioAssay AID1259425 (University of Nebraska Medical Center, 2018).

Assay: 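Compare each knockdown with KSR1 silencing using changes in marker transcripts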 (primary screen)
System: HCT116 human colon cancer cells
Knock-down reagent: siRNA pool against human genes, 50 nM siRNA
Read-out: 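After 50 nM siRNA pool, branched-DNA assay measures six marker transcripts per well, minus blank, normalised to the geometric mean of two housekeeping transcripts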
Reading the numbers: BNIP3L mRNA: higher = more BNIP3L transcript after knockdown
The deposit covers about 14,000 reagents; below is an unselected part. Some reagents were tested in more than one well and are listed for each. Further read-outs or replicates are left out here. The record does not give: the time to read-out.

For NDN, the values are BNIP3L mRNA, set 1 = 0.141.
For ANKFY1, the values are BNIP3L mRNA, set 1 = 0.142.
AKAP8L showed BNIP3L mRNA, set 1 = 0.0866.
Knock-down of AKAP8L gave: BNIP3L mRNA, set 1 = 0.0849.
For GALNT9 the deposit lists BNIP3L mRNA, set 1 = 0.0737.
Depletion of GRM4 came out at: BNIP3L mRNA, set 1 = 0.166.
EIF2AK4 showed BNIP3L mRNA, set 1 = 0.159.
Against TGFBRAP1, the values are BNIP3L mRNA, set 1 = 0.0583.
FCN1 gave BNIP3L mRNA, set 1 = 0.0553.
With knock-down of TNFRSF10D, the record shows BNIP3L mRNA, set 1 = 0.0608.

An excerpt of the results above, as a working copy:
NDN — BNIP3L mRNA, set 1 = 0.141
ANKFY1 — BNIP3L mRNA, set 1 = 0.142

Further entries:
TTC31 showed BNIP3L mRNA, set 1 = 0.0874.
ZBTB26 gave BNIP3L mRNA, set 1 = 0.0333.
SLCO2B1 scored BNIP3L mRNA, set 1 = 0.16.
Against CES3, the entry reads BNIP3L mRNA, set 1 = 0.17.
With knock-down of CNTNAP3, the screen gave BNIP3L mRNA, set 1 = 0.207.
Knock-down of TAP1 came out at: BNIP3L mRNA, set 1 = 0.0692.
Depletion of TUFT1 resulted in: BNIP3L mRNA, set 1 = 0.227.
With knock-down of VDAC1 the results were BNIP3L mRNA, set 1 = 0.135.
Silencing of LCK came out at: BNIP3L mRNA, set 1 = 0.263.
